Assay results from patent publication US10758546B2 (priority 2011, dated 2020).
At least one compound was matched to its structure with a doubt left.

Test: Crystallization of galantamine in the adhesive matrix on storage at room temperature
Format: physicochemical
Conditions: SBS matrix, drug loading of 20% w/w

In the case of `COc1ccc2c3c1O[C@H]1C[C@@H](O)C=C[C@@]31CCN(C)C2` [galantamine], the “time until crystals were observed in the matrix” value is reported as no more than 72 h.
